Values from PubChem BioAssay AID504784 (Drosophila RNAi Screening Center, 2011)
Purpose: 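Genome-wide knock-down for genes giving too much or too little stored lipid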 (primary screen). System: Drosophila Kc167 embryonic cells. Reagents: long dsRNA against Drosophila genes, about 250 ng dsRNA per well. Duration: 4 days. Conditions: cells fed 400 µM oleic acid bound to BSA. Read-out: 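Cells imaged and segmented; ratio of lipid droplet area to nuclear area, log-transformed, then normalised as a B-score over the screen; higher means more stored lipid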. Scale: droplet/nuclear area B-score: higher = more stored lipid (overstorage).
In all, the deposit lists about 17,000 reagents; below is an unselected part of those that have a named target and a result. 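Each column is one replicate's B-score; the combined score over replicates was not deposited, so single values may mislead.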 Names joined by + are all predicted targets of the reagent.

| Gene | amplicon | droplet/nuclear area B-score, replicate 1 | droplet/nuclear area B-score, replicate 2 | droplet/nuclear area B-score, replicate 3 |
| --- | --- | --- | --- | --- |
| Bre1 | DRSC09742 | -4.65 | 0.632 | – |
| fabp + sea | DRSC16114 | 7.94 | -0.0399 | – |
| fabp + sea | DRSC16115 | 8.05 | 7.63 | – |
| CG8939 | DRSC20127 | -0.532 | -0.0578 | -0.411 |
| IntS3 | DRSC21215 | -3.63 | -2.32 | – |
| Hrb27C | DRSC03347 | -2.41 | -2.53 | – |
| Rab40 | DRSC19820 | -0.054 | 0.512 | 0.946 |
| CG11581 | DRSC19407 | -1.89 | 1.74 | – |
| CG6225 | DRSC15996 | -0.146 | -0.106 | – |
| DCTN6-p27 | DRSC02609 | 2.15 | -0.0586 | -0.831 |
| DCTN6-p27 | DRSC22810 | -0.0157 | 1.17 | – |
| CG14043 | DRSC02368 | -0.0166 | 0.28 | – |
| Gclm | DRSC15677 | -1.18 | -0.044 | – |
| mamo | DRSC19370 | -1.57 | -2.11 | – |
| CG14823 | DRSC10194 | 0.189 | 0.649 | – |
| CG15864 | DRSC15122 | 0.0707 | -1.61 | – |
| NTPase | DRSC00761 | -0.413 | 0.483 | – |
| CG33099 | DRSC15774 | 0.0751 | -0.0811 | – |
| CG1265 | DRSC08288 | -0.211 | 0.0736 | – |
| ebi | DRSC00816 | -2.47 | -1.2 | – |
| RpL23A | DRSC08694 | 2.09 | -0.0222 | – |
| RpL23A | DRSC22035 | -0.0304 | -0.102 | – |
| Rrp42 | DRSC07161 | 0.616 | 0.564 | – |
| Cyp4g15 | DRSC20240 | 1.03 | 1.27 | 0.00283 |
| CG7692 | DRSC10902 | -0.317 | 0.313 | – |
| Usp15-31 | DRSC04426 | -0.0431 | -1.82 | – |
| Usp15-31 | DRSC04532 | 3.38 | 1.26 | – |
| CG8560 | DRSC10994 | 1.39 | -1.25 | – |
| Dg | DRSC06718 | -1.51 | 1.47 | – |
| Meics | DRSC11413 | -0.444 | -0.00233 | – |
| Cont | DRSC12149 | -0.0701 | 0.0632 | -2.08 |
| l(2)09851 | DRSC04858 | 0.0813 | -1.35 | – |
| CG4459 | DRSC15582 | -0.156 | 0.592 | – |
| Lpt | DRSC04291 | 0.0587 | -1.3 | – |
| Lpt | DRSC04515 | -1.92 | -0.444 | – |
| ara | DRSC11322 | -1.16 | -1.18 | – |
| ara | DRSC22984 | 0.499 | -0.994 | – |
| Art9 | DRSC16584 | 1.74 | -0.0989 | – |
| CG5973 | DRSC02918 | -1.43 | 0.0851 | – |
| Actn | DRSC17724 | 0.838 | – | – |
| Argl + CG9515 | DRSC03243 | 1.9 | 1.93 | – |
| Argl + CG9515 | DRSC03245 | 1.87 | 0.0546 | – |
| CG10433 | DRSC04068 | -0.604 | 0.604 | – |
| Cyp4aa1 | DRSC07368 | -1.87 | 0.755 | – |
| Fgop2 | DRSC02016 | 0.0225 | 0.752 | – |
| Osi7 | DRSC12176 | 1.15 | -0.71 | – |
| Dys | DRSC15260 | 0.836 | -0.196 | – |
| Dys | DRSC16218 | 0.551 | -0.274 | – |
| Dys | DRSC16219 | -0.777 | -0.609 | – |
| Dys | DRSC16220 | -0.143 | -1.03 | – |
| Dys | DRSC16935 | 0.808 | -2.96 | – |
| unpg | DRSC07713 | -0.714 | -0.0195 | – |

Next part, starting with the last 7 of the part before.
| Gene | amplicon | droplet/nuclear area B-score, replicate 1 | droplet/nuclear area B-score, replicate 2 | droplet/nuclear area B-score, replicate 3 |
| --- | --- | --- | --- | --- |
| Osi7 | DRSC12176 | 1.15 | -0.71 | – |
| Dys | DRSC15260 | 0.836 | -0.196 | – |
| Dys | DRSC16218 | 0.551 | -0.274 | – |
| Dys | DRSC16219 | -0.777 | -0.609 | – |
| Dys | DRSC16220 | -0.143 | -1.03 | – |
| Dys | DRSC16935 | 0.808 | -2.96 | – |
| unpg | DRSC07713 | -0.714 | -0.0195 | – |
| CG8435 | DRSC07179 | -0.403 | -1.11 | – |
| CG9782 | DRSC19145 | 0.331 | 0.59 | – |
| CG9782 | DRSC20209 | -1.64 | 1.18 | – |
| CG41520 | DRSC21102 | -0.0387 | -0.399 | – |
| CG5882 | DRSC15907 | 1.22 | 1.48 | – |
| CG15233 | DRSC04967 | 1.25 | 0.447 | – |
| CG1421 | DRSC03707 | 0.903 | -1.07 | – |
| CG33259 | DRSC10854 | -0.032 | -0.00769 | – |
| CG6660 | DRSC16087 | 0.592 | -0.0455 | – |
| Marf | DRSC18329 | 0.341 | -2.98 | 1 |
| CG3829 | DRSC04423 | 0.0293 | 0.286 | – |
| dlp | DRSC10281 | -2.3 | 0.633 | -0.847 |
| dlp | DRSC10472 | 0.827 | 0.3 | – |
| CG15701 | DRSC06572 | -0.458 | – | – |
| Cdep | DRSC12028 | 0.711 | -0.575 | – |
| Cdep | DRSC12220 | -2.37 | 1.41 | – |
| Cdep | DRSC12291 | -0.643 | 0.137 | – |
| enok | DRSC04096 | 0.978 | -0.0389 | – |
| kmg | DRSC02829 | 1.02 | -0.642 | – |
| bin3 | DRSC04919 | 1.21 | -1.64 | – |
| CG12506 | DRSC00347 | -0.75 | -0.77 | – |
| CG4575 (retired record) | DRSC18372 | 0.843 | -0.231 | – |
| CG16935 | DRSC06638 | -0.0539 | -0.307 | – |
| Bicra | DRSC14417 | -2.48 | 0.322 | – |
| CrzR | DRSC09781 | 0.694 | 0.747 | – |
| CrzR | DRSC09782 | 2.13 | 0.378 | – |
| 7SLRNA:CR42652 + 7SLRNA:CR32864 | DRSC22968 | 0.869 | -0.257 | – |
| Pu | DRSC04645 | -0.349 | -4.49 | – |
| Sik2 | DRSC18522 | 0.574 | 0.0934 | – |
| CG7741 | DRSC07035 | -1.19 | 0.55 | – |
| Rassf | DRSC15612 | -0.546 | -0.544 | – |
